Measured values: PMC5355957
Results are given in words; binding and its absence hold for the method and conditions named. Binding seen in cells or lysates may run through a third protein. A yes stands for co-enrichment or nearness to the bait. Other partners may have been found. Each block holds one binder with its values, some of them ahead of it.

Biological target: GFP-tagged Rab-coupling protein (GFP-RCP)
Test: affinity purification with mass spectrometry; GFP-RCP (control: GFP) immunoprecipitated with anti-GFP magnetic beads from lysates of transfected A2780 cells; lysis buffer with 0.15% Tween-20, 200 mM NaCl, 75 mM Tris-HCl pH 7; 2 h at 4 °C; SDS-PAGE; MALDI-TOF mass spectrometry

- binding: binds
B1: 5'-nucleotidase (enzyme, UniProt P21589 27-549)
chain: WELTILHTNDVHSRLEQTSEDSSKCVNASRCMGGVARLFTKVQQIRRAEPNVLLLDAGDQYQGTIWFTVYKGAEVAHFMNALRYDAMALGNHEFDNGVEGLIEPLLKEAKFPILSANIKAKGPLASQISGLYLPYKVLPVGDEVVGIVGYTSKETPFLSNPGTNLVFEDEITALQPEVDKLKTLNVNKIIALGHSGFEMDKLIAQKVRGVDVVVGGHSNTFLYTGNPPSKEVPAGKYPFIVTSDDGRKVPVVQAYAFGKYLGYLKIEFDERGNVISSHGNPILLNSSIPEDPSIKADINKWRIKLDNYSTQELGKTIVYLDGSSQSCRFRECNMGNLICDAMINNNLRHTDEMFWNHVSMCILNGGGIRSPIDERNNGTITWENLAAVLPFGGTFDLVQLKGSTLKKAFEHSVHRYGQSTGEFLQVGGIHVVYDLSRKPGDRVVKLDVLCTKCRVPSYDPLKMDEVYKVILPNFLANGGDGFQMIKDELLRHDSGDQDINVVSTYISKMKVIYPAVEGRIKFS

- binding: binds
B2: Rab11-FIP5 (protein, UniProt Q9BXF6 1-653)
chain: MALVRGAEPAAGPSRWLPTHVQVTVLRARGLRGKSSGAGSTSDAYTVIQVGREKYSTSVVEKTHGCPEWREECSFELPPGALDGLLRAQEADAGPAPWAASSAAACELVLTTMHRSLIGVDKFLGQATVALDEVFGAGRAQHTQWYKLHSKPGKKEKERGEIEVTIQFTRNNLSASMFDLSMKDKPRSPFSKIRDKMKGKKKYDLESASAILPSSAIEDPDLGSLGKMGKAKGFFLRNKLRKSSLTQSNTSLGSDSTLSSASGSLAYQGPGAELLTRSPSRSSWLSTEGGRDSAQSPKLFTHKRTYSDEANQMRVAPPRALLDLQGHLDAASRSSLCVNGSHIYNEEPQGPVRHRSSISGSLPSSGSLQAVSSRFSEEGPRSTDDTWPRGSRSNSSSEAVLGQEELSAQAKVLAPGASHPGEEEGARLPEGKPVQVATPIVASSEAVAEKEGARKEERKPRMGLFHHHHQGLSRSELGRRSSLGEKGGPILGASPHHSSSGEEKAKSSWFGLREAKDPTQKPSPHPVKPLSAAPVEGSPDRKQSRSSLSIALSSGLEKLKTVTSGSIQPVTQAPQAGQMVDTKRLKDSAVLDQSAKYYHLTHDELISLLLQRERELSQRDEHVQELESYIDRLLVRIMETSPTLLQIPPGPPK

- binding: binds
B3: Peroxisomal multifunctional enzyme type 2 (enzyme, UniProt P51659 1-736)
chain: MGSPLRFDGRVVLVTGAGAGLGRAYALAFAERGALVVVNDLGGDFKGVGKGSLAADKVVEEIRRRGGKAVANYDSVEEGEKVVKTALDAFGRIDVVVNNAGILRDRSFARISDEDWDIIHRVHLRGSFQVTRAAWEHMKKQKYGRIIMTSSASGIYGNFGQANYSAAKLGLLGLANSLAIEGRKSNIHCNTIAPNAGSRMTQTVMPEDLVEALKPEYVAPLVLWLCHESCEENGGLFEVGAGWIGKLRWERTLGAIVRQKNHPMTPEAVKANWKKICDFENASKPQSIQESTGSIIEVLSKIDSEGGVSANHTSRATSTATSGFAGAIGQKLPPFSYAYTELEAIMYALGVGASIKDPKDLKFIYEGSSDFSCLPTFGVIIGQKSMMGGGLAEIPGLSINFAKVLHGEQYLELYKPLPRAGKLKCEAVVADVLDKGSGVVIIMDVYSYSEKELICHNQFSLFLVGSGGFGGKRTSDKVKVAVAIPNRPPDAVLTDTTSLNQAALYRLSGDWNPLHIDPNFASLAGFDKPILHGLCTFGFSARRVLQQFADNDVSRFKAIKARFAKPVYPGQTLQTEMWKEGNRIHFQTKVQETGDIVISNAYVDLAPTSGTSAKTPSEGGKLQSTFVFEEIGRRLKDIGPEVVKKVNAVFEWHITKGGNIGAKWTIDLKSGSGKVYQGPAKGAADTTIILSDEDFMEVVLGKLDPQKAFFSGRLKARGNIMLSQKLQMILKDYAKL

- binding: binds
B4: Myeloid-associated differentiation marker (protein, UniProt Q96S97 1-322)
chain: MPVTVTRTTITTTTTSSSGLGSPMIVGSPRALTQPLGLLRLLQLVSTCVAFSLVASVGAWTGSMGNWSMFTWCFCFSVTLIILIVELCGLQARFPLSWRNFPITFACYAALFCLSASIIYPTTYVQFLSHGRSRDHAIAATFFSCIACVAYATEVAWTRARPGEITGYMATVPGLLKVLETFVACIIFAFISDPNLYQHQPALEWCVAVYAICFILAAIAILLNLGECTNVLPIPFPSFLSGLALLSVLLYATALVLWPLYQFDEKYGGQPRRSRDVSCSRSHAYYVCAWDRRLAVAILTAINLLAYVADLVHSAHLVFVKV
